# Assay results: the supplement of paper PMC8728848
# The other results are listed elsewhere or left out.
# B1: EULS2 M3 (Oryza sativa) (protein)
# chain: MVYCRANPNYAMTARNGAVVLAPANPKDEYQHWIKDMRWSTSIKDEEGYPAFALVNKATGQAIKHSLGQSHPVRLVPYNPEVMDESVLWTESRDVGNGFRCIRMVNNIYLNFDAFHGDKYHGGVRDGTDIVLWKLCEGDSLRWKIQPYYILEQKLISEEDLNSAVDHHHHHH
# Legend:
# Assay in all cases: glycan array binding signal (z-score within array); higher = stronger binding
# Conditions in all cases: glycan notation: IUPAC condensed, linker removed
# Fuc(a1-3)GlcNAc = biological target: Fuc(a1-3)GlcNAc
# Summary of the method: (§1)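 Glycan array data were curated from 3228 arrays in the Consortium for Functional Glycomics database and kept only where the protein sequence was available. Glycan names were converted to IUPAC-condensed notation, and columns mapping to the same glycan were averaged. The binding signal is a within-array Z-score, averaged across arrays of the same protein sequence at different concentrations or buffers and across linkers. Negative Z-scores can be read as non-binding.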
# [1] = biological target: Fuc(a1-3)[Gal(b1-4)]Glc6S
# Summary of the method: as §1
# [2] = biological target: Fuc(a1-3)[Gal(b1-4)]GlcNAc
# Summary of the method: as §1
# [3] = biological target: Fuc(a1-3)[Gal(b1-4)]GlcNAc(b1-2)Man
# Summary of the method: as §1
# [4] = biological target: Fuc(a1-3)[Gal(b1-4)]GlcNAc(b1-2)Man(a1-3)[Fuc(a1-3)[Gal(b1-4)]GlcNAc(b1-2)Man(a1-6)]Man(b1-4)GlcNAc(b1-4)GlcNAc
# Summary of the method: as §1
# [5] = biological target: Fuc(a1-3)[Gal(b1-4)]GlcNAc(b1-2)Man(a1-3)[Fuc(a1-3)[Gal(b1-4)]GlcNAc(b1-2)Man(a1-6)]Man(b1-4)GlcNAc(b1-4)[Fuc(a1-6)]GlcNAc
# Summary of the method: as §1
# [6] = biological target: Fuc(a1-3)[Gal(b1-4)]GlcNAc(b1-3)Gal(b1-3)[Fuc(a1-4)]GlcNAc
# Summary of the method: as §1
# [7] = biological target: Fuc(a1-3)[Gal(b1-4)]GlcNAc(b1-3)Gal(b1-4)[Fuc(a1-3)]GlcNAc
# Summary of the method: as §1
# [8] = biological target: Fuc(a1-3)[Gal(b1-4)]GlcNAc(b1-3)Gal(b1-4)[Fuc(a1-3)]GlcNAc(b1-3)Gal(b1-4)[Fuc(a1-3)]GlcNAc
# Summary of the method: as §1
# [9] = biological target: Fuc(a1-3)[Gal(b1-4)]GlcNAc(b1-3)GalNAc
# Summary of the method: as §1
# [10] = biological target: Fuc(a1-3)[Gal(b1-4)]GlcNAc(b1-6)GalNAc
# Summary of the method: as §1
# [11] = biological target: Fuc(a1-3)[Gal(b1-4)]GlcNAc(b1-6)[Gal(b1-3)GlcNAc(b1-3)]Gal(b1-4)Glc
# Summary of the method: as §1
# [12] = biological target: Fuc(a1-3)[Gal(b1-4)]GlcNAc6S
# Summary of the method: as §1
# [13] = biological target: Fuc(a1-3)[Gal3S(b1-4)]Glc
# Summary of the method: as §1
# [14] = biological target: Fuc(a1-3)[Gal3S(b1-4)]GlcNAc
# Summary of the method: as §1
# [15] = biological target: Fuc(a1-3)[Gal3S(b1-4)]GlcNAc6S
# Summary of the method: as §1
# [16] = biological target: Fuc(a1-3)[GalNAc(b1-4)]GlcNAc
# Summary of the method: as §1
# [17] = biological target: Fuc(a1-3)[GalNAc(b1-4)]GlcNAc6S
# Summary of the method: as §1
# Fuc(a1-4)GlcNAc = biological target: Fuc(a1-4)GlcNAc
# Summary of the method: as §1
# Fuc(b1-3)GlcNAc = biological target: Fuc(b1-3)GlcNAc
# Summary of the method: as §1
# Gal(a1-2)Gal = biological target: Gal(a1-2)Gal
# Summary of the method: as §1
# Gal(a1-3)Gal = biological target: Gal(a1-3)Gal
# Summary of the method: as §1
# Gal(a1-3)Gal(b1-3)GlcNAc = biological target: Gal(a1-3)Gal(b1-3)GlcNAc
# Summary of the method: as §1
# [18] = biological target: Gal(a1-3)Gal(b1-3)GlcNAc(b1-2)Man
# Summary of the method: as §1
# [19] = biological target: Gal(a1-3)Gal(b1-3)GlcNAc(b1-2)Man(a1-3)[Gal(a1-3)Gal(b1-3)GlcNAc(b1-2)Man(a1-6)]Man(b1-4)GlcNAc(b1-4)GlcNAc
# Summary of the method: as §1
# [20] = biological target: Gal(a1-3)Gal(b1-3)GlcNAc(b1-3)GalNAc
# Summary of the method: as §1
# [21] = biological target: Gal(a1-3)Gal(b1-3)GlcNAc(b1-6)GalNAc
# Summary of the method: as §1
# [22] = biological target: Gal(a1-3)Gal(b1-3)[Fuc(a1-4)]GlcNAc(b1-2)Man(a1-3)[Gal(a1-3)Gal(b1-3)[Fuc(a1-4)]GlcNAc(b1-2)Man(a1-6)]Man(b1-4)GlcNAc(b1-4)GlcNAc
# Summary of the method: as §1
# Gal(a1-3)Gal(b1-4)Glc = biological target: Gal(a1-3)Gal(b1-4)Glc
# Summary of the method: as §1
# Gal(a1-3)Gal(b1-4)GlcNAc = biological target: Gal(a1-3)Gal(b1-4)GlcNAc
# Summary of the method: as §1
# [23] = biological target: Gal(a1-3)Gal(b1-4)GlcNAc(b1-2)Man
# Summary of the method: as §1
# [24] = biological target: Gal(a1-3)Gal(b1-4)GlcNAc(b1-2)Man(a1-3)[Gal(a1-3)Gal(b1-4)GlcNAc(b1-2)Man(a1-6)]Man(b1-4)GlcNAc(b1-4)GlcNAc
# Summary of the method: as §1
# [25] = biological target: Gal(a1-3)Gal(b1-4)GlcNAc(b1-3)GalNAc
# Summary of the method: as §1
# [26] = biological target: Gal(a1-3)Gal(b1-4)GlcNAc(b1-6)GalNAc
# Summary of the method: as §1
# [27] = biological target: Gal(a1-3)Gal(b1-4)[Fuc(a1-3)]GlcNAc
# Summary of the method: as §1
# [28] = biological target: Gal(a1-3)Gal(b1-4)[Fuc(a1-3)]GlcNAc(b1-2)Man(a1-3)[Gal(a1-3)Gal(b1-4)[Fuc(a1-3)]GlcNAc(b1-2)Man(a1-6)]Man(b1-4)GlcNAc(b1-4)GlcNAc
# Summary of the method: as §1
# Gal(a1-3)GalNAc = biological target: Gal(a1-3)GalNAc
# Summary of the method: as §1
# [29] = biological target: Gal(a1-3)[Gal(a1-4)]Gal(b1-4)GlcNAc
# Summary of the method: as §1
# [30] = biological target: Gal(a1-4)Gal(b1-3)GlcNAc(b1-2)Man(a1-3)[Gal(a1-4)Gal(b1-3)GlcNAc(b1-2)Man(a1-6)]Man(b1-4)GlcNAc(b1-4)GlcNAc
# Summary of the method: as §1
# Gal(a1-4)Gal(b1-4)Glc = biological target: Gal(a1-4)Gal(b1-4)Glc
# Summary of the method: as §1
# Gal(a1-4)Gal(b1-4)GlcNAc = biological target: Gal(a1-4)Gal(b1-4)GlcNAc
# Summary of the method: as §1
# [31] = biological target: Gal(a1-4)Gal(b1-4)GlcNAc(b1-2)Man(a1-3)[Gal(a1-4)Gal(b1-4)GlcNAc(b1-2)Man(a1-6)]Man(b1-4)GlcNAc(b1-4)GlcNAc
# Summary of the method: as §1
# [32] = biological target: Gal(a1-4)Gal(b1-4)GlcNAc(b1-3)Gal(b1-4)Glc
# Summary of the method: as §1
# Gal(a1-4)GlcNAc = biological target: Gal(a1-4)GlcNAc
# Summary of the method: as §1
# Gal(a1-6)Glc = biological target: Gal(a1-6)Glc
# Summary of the method: as §1
binder,measurement,setting,value
B1,glycan array binding signal (z-score),Fuc(a1-3)GlcNAc,-0.381
same,glycan array binding signal (z-score),[1],0.022
same,glycan array binding signal (z-score),[2],-0.464
same,glycan array binding signal (z-score),[3],0.127
same,glycan array binding signal (z-score),[4],-1.13
same,glycan array binding signal (z-score),[5],-0.206
same,glycan array binding signal (z-score),[6],0.037
same,glycan array binding signal (z-score),[7],0.312
same,glycan array binding signal (z-score),[8],0.451
same,glycan array binding signal (z-score),[9],-0.575
same,glycan array binding signal (z-score),[10],-0.383
same,glycan array binding signal (z-score),[11],-0.086
same,glycan array binding signal (z-score),[12],-0.919
same,glycan array binding signal (z-score),[13],0.485
same,glycan array binding signal (z-score),[14],-0.179
same,glycan array binding signal (z-score),[15],-0.196
same,glycan array binding signal (z-score),[16],0.017
same,glycan array binding signal (z-score),[17],-0.95
same,glycan array binding signal (z-score),Fuc(a1-4)GlcNAc,-0.052
same,glycan array binding signal (z-score),Fuc(b1-3)GlcNAc,-0.316
same,glycan array binding signal (z-score),Gal(a1-2)Gal,-0.03
same,glycan array binding signal (z-score),Gal(a1-3)Gal,0.277
same,glycan array binding signal (z-score),Gal(a1-3)Gal(b1-3)GlcNAc,8.25
same,glycan array binding signal (z-score),[18],-0.512
same,glycan array binding signal (z-score),[19],-0.1
same,glycan array binding signal (z-score),[20],-0.388
same,glycan array binding signal (z-score),[21],-0.479
same,glycan array binding signal (z-score),[22],0.332
same,glycan array binding signal (z-score),Gal(a1-3)Gal(b1-4)Glc,0.227
same,glycan array binding signal (z-score),Gal(a1-3)Gal(b1-4)GlcNAc,0.181
same,glycan array binding signal (z-score),[23],-0.417
same,glycan array binding signal (z-score),[24],0.222
same,glycan array binding signal (z-score),[25],-0.198
same,glycan array binding signal (z-score),[26],-0.929
same,glycan array binding signal (z-score),[27],0.123
same,glycan array binding signal (z-score),[28],-0.329
same,glycan array binding signal (z-score),Gal(a1-3)GalNAc,-0.069
same,glycan array binding signal (z-score),[29],0.564
same,glycan array binding signal (z-score),[30],0.072
same,glycan array binding signal (z-score),Gal(a1-4)Gal(b1-4)Glc,-0.501
same,glycan array binding signal (z-score),Gal(a1-4)Gal(b1-4)GlcNAc,-0.442
same,glycan array binding signal (z-score),[31],0.307
same,glycan array binding signal (z-score),[32],-0.361
same,glycan array binding signal (z-score),Gal(a1-4)GlcNAc,-0.318
same,glycan array binding signal (z-score),Gal(a1-6)Glc,-0.431

# An excerpt of these results, with bars between the fields.
binder | measurement | setting | value
B1 | glycan array binding signal (z-score) | [15] | -0.196
same | glycan array binding signal (z-score) | [20] | -0.388
same | glycan array binding signal (z-score) | [28] | -0.329
